Data on one substance can be found in PMC9579143.

Amino acid sequences for entries named in this document (tags omitted).
UniProt O00308: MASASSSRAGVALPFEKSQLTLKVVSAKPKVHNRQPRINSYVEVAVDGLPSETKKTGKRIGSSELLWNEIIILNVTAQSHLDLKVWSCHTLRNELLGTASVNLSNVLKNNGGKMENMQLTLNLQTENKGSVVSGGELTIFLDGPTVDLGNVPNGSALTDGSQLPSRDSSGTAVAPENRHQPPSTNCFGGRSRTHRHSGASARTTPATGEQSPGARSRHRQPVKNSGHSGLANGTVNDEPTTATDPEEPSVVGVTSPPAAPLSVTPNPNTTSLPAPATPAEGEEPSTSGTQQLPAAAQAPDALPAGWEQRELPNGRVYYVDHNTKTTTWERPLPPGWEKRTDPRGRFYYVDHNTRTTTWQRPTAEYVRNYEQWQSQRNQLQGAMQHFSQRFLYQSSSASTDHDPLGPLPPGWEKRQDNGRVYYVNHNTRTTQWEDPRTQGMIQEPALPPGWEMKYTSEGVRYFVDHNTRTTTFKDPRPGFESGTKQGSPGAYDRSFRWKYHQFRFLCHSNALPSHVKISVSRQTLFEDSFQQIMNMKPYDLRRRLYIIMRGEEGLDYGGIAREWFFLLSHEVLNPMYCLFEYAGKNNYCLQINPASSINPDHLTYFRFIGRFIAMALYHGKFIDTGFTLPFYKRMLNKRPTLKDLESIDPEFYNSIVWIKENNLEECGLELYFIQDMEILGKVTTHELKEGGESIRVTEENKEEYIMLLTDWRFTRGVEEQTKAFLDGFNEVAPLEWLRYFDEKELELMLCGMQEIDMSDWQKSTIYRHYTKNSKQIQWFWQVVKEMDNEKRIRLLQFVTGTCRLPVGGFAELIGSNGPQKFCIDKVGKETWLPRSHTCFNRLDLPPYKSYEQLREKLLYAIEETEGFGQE
UniProt P09874: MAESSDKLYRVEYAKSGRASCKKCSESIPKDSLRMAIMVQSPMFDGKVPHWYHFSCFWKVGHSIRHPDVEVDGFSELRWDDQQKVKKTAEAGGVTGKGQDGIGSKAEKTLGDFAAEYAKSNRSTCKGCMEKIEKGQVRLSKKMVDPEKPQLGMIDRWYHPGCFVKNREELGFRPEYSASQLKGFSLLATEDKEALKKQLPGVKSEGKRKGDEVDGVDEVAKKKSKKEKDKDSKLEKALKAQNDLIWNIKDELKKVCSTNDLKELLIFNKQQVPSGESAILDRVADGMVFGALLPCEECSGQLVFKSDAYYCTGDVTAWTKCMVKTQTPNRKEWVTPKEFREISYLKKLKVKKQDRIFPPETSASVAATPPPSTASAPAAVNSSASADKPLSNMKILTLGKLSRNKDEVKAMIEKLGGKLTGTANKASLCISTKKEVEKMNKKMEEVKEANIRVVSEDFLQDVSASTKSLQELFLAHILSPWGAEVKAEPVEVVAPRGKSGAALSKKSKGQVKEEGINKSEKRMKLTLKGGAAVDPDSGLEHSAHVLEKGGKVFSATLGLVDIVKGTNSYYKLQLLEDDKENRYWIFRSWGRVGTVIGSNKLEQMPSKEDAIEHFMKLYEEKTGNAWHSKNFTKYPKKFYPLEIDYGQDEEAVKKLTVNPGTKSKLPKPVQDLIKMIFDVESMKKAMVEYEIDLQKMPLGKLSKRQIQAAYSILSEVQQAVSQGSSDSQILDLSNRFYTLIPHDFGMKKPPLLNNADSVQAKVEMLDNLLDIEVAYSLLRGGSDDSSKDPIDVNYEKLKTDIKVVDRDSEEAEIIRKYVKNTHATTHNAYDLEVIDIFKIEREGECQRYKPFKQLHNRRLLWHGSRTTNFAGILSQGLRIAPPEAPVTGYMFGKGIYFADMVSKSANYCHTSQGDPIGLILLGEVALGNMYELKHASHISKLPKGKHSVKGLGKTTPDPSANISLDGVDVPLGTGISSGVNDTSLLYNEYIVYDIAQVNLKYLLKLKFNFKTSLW

These are yes or no findings as the source states them, for the method shown. Binding seen in cells or lysates may run through a third protein. Some entries that bind do so weakly or less than the wild type.

The target in one experiment is HA-WWP2 (human) (UniProt O00308). Kind of experiment: co-IP; half-exogenous: Jurkat cells transfected with HA-WWP2, endogenous PARP1; lysate with specific antibodies and magnetic beads, 4 °C 12 h; with or without MG132.
The target in experiment [1] is WWP2 (human (endogenous in Jurkat)) (UniProt O00308). Kind of experiment: co-IP; endogenous proteins in Jurkat cell lysate (1% NP-40, 137 mmol/L NaCl, pH 7.8), specific antibodies and magnetic beads, 4 °C 12 h; both directions; cells untreated, with Dox (0.2 μM) or with MG132.

Turning to “Poly (ADP-ribose) polymerase 1 (PARP1) (from UniProt P09874 1-1014) (enzyme)”, the binding entry (in the experiment with HA-WWP2 (human); in experiment [1]) was “binds” throughout.
